This is one part of the list.
compound: CC1Cc2ccccc2N1C(=O)C1CCCN(C1)C(=O)CCl (mixture of isomers) [TRIM25 ligand 11 (diastereomer mixture)]; experiment: probe-labelled cysteine peptide fold change vs DMSO (competition) (log2 fold change); higher = less target engagement (more negative = stronger competition); conditions: 10 µM; THP-1; incubation time: 4 h
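Further: competitive chemoproteomic profiling in live THP-1 cells with an iodoacetamide desthiobiotin (IA-DTB) probe, comparing probe-labelled peptide intensities in compound-treated cells against DMSO-treated controls.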

Amino acid sequences for entries named in this document (tags omitted). A change or cut given only in a name is not applied to a line headed by its entry.
UniProt P60981: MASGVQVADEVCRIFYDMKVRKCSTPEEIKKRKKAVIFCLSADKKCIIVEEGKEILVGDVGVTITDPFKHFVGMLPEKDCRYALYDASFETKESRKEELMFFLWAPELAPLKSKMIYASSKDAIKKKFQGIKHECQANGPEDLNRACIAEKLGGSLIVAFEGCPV
UniProt Q7L591: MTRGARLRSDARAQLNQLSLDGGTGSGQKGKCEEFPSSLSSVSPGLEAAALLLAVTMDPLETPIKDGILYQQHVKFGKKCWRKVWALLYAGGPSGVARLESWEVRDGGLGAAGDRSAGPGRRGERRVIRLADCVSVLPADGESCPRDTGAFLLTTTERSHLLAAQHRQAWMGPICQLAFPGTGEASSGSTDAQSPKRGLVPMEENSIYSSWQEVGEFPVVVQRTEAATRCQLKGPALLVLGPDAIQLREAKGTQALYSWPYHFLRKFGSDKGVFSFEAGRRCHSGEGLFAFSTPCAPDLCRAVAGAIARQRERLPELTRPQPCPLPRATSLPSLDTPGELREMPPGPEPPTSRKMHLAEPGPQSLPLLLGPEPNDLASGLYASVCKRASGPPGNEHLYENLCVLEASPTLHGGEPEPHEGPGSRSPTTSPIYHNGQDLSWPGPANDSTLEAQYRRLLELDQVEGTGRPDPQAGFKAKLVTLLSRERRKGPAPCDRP
UniProt Q14204, whole entry, looked up: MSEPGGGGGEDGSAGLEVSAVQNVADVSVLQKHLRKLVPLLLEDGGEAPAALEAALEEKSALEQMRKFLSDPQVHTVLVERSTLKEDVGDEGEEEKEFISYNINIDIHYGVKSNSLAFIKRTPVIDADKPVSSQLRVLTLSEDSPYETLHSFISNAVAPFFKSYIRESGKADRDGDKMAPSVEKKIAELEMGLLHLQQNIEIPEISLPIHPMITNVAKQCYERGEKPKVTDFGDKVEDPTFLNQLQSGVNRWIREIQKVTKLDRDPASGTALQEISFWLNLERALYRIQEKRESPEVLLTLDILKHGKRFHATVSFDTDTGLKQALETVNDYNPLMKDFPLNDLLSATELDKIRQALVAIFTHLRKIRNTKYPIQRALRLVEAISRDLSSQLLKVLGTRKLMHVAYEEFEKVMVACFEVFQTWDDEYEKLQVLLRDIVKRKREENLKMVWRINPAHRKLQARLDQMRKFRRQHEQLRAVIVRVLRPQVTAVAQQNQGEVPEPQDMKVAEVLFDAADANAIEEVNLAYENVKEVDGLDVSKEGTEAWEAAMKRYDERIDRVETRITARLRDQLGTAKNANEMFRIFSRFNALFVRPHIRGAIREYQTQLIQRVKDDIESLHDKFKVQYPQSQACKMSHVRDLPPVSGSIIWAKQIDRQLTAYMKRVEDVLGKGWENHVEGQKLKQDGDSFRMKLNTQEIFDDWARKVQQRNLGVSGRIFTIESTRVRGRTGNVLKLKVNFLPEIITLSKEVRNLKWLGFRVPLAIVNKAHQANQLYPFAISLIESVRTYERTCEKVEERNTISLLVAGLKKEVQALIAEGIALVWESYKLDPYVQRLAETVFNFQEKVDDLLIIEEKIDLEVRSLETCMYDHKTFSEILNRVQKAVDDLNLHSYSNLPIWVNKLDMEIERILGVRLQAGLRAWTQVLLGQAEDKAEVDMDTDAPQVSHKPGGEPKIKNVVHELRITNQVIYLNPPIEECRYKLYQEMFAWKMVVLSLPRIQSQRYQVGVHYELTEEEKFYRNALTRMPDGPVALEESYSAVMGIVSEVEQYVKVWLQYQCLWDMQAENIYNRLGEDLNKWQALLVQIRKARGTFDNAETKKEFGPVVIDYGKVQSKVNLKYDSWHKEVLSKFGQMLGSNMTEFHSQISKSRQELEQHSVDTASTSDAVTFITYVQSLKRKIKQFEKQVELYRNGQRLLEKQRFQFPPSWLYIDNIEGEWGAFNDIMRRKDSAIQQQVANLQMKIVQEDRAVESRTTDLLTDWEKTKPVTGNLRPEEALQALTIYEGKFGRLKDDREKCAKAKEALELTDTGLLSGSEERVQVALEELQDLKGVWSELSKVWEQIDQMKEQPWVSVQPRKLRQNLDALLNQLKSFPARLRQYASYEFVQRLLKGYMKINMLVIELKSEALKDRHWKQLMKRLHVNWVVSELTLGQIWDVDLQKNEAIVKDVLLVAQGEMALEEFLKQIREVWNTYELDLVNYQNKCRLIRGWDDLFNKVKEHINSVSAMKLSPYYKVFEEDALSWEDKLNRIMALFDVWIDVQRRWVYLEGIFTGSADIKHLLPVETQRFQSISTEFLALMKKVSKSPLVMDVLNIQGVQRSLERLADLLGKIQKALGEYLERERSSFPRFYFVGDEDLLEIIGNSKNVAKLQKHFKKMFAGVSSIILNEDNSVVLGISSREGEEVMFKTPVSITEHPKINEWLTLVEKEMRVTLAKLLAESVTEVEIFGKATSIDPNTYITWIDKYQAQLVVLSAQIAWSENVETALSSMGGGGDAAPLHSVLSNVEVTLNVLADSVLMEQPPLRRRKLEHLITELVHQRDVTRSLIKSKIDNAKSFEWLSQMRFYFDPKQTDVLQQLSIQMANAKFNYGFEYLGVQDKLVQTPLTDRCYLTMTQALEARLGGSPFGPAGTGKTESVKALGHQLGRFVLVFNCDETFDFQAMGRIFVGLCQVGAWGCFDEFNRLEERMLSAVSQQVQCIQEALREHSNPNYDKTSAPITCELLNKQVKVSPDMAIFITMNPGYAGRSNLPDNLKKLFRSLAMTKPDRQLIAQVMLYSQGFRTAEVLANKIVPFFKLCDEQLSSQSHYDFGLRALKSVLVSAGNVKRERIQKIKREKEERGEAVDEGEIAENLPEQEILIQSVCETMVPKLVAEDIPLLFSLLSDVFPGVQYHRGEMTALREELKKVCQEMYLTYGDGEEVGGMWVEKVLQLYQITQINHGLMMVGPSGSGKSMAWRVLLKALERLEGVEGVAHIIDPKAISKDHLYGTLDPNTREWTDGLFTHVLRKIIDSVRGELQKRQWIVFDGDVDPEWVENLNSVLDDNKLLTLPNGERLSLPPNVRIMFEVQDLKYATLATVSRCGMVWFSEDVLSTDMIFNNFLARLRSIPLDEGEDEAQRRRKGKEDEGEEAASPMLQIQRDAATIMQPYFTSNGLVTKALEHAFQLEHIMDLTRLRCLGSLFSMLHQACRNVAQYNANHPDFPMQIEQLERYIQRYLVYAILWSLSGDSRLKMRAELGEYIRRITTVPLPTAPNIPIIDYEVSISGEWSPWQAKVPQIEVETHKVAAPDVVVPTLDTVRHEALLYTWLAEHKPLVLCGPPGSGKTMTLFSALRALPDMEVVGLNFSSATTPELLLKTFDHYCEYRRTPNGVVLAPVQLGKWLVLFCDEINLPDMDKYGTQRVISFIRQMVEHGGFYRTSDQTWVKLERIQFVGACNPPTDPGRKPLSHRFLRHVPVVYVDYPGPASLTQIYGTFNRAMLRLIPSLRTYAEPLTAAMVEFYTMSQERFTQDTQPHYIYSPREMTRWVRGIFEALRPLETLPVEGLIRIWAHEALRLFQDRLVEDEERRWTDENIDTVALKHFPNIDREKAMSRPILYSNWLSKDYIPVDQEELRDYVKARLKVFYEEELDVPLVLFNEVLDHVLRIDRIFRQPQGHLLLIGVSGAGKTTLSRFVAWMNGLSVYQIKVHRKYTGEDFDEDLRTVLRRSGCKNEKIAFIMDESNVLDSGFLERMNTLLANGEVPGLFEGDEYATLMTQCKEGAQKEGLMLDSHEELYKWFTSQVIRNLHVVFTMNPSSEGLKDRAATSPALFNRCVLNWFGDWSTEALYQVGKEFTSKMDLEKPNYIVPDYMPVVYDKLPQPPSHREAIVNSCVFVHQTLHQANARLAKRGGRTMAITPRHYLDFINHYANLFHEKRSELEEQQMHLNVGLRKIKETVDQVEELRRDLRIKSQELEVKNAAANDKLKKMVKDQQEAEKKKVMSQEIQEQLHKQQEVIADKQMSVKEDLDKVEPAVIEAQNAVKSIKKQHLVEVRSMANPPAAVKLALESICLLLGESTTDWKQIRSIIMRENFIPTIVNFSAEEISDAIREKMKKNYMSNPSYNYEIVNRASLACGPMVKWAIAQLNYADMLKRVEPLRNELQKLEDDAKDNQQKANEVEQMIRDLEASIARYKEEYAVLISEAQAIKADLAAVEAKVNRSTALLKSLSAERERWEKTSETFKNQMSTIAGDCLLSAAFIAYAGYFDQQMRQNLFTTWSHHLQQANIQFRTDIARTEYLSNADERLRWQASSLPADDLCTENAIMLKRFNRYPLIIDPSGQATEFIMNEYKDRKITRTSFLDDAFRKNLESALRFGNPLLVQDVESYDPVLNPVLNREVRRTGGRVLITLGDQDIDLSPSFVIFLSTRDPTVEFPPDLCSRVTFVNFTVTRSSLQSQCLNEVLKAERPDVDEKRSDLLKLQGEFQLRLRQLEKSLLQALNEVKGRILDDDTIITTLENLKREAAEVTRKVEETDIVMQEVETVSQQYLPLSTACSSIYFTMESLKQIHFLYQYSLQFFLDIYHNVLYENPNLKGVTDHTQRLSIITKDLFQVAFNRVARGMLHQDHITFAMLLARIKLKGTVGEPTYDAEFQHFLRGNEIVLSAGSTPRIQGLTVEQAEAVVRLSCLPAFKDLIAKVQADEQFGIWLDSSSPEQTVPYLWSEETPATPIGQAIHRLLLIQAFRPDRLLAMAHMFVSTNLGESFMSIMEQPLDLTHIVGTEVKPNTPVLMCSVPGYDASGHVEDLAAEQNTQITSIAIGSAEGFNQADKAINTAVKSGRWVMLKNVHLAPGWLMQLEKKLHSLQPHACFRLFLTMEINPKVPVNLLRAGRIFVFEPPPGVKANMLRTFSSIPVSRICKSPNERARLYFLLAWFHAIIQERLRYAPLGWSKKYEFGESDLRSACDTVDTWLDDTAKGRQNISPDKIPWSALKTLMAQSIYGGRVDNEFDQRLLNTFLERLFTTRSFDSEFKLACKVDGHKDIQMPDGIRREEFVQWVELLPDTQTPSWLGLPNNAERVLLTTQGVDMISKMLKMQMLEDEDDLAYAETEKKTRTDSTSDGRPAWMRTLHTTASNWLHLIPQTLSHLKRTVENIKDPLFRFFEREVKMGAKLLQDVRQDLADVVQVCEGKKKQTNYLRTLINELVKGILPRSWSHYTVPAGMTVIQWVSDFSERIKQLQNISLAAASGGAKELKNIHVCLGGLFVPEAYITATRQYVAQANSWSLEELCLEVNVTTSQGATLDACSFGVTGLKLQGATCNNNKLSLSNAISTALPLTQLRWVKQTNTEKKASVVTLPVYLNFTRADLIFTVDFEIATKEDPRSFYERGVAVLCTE
UniProt Q99704: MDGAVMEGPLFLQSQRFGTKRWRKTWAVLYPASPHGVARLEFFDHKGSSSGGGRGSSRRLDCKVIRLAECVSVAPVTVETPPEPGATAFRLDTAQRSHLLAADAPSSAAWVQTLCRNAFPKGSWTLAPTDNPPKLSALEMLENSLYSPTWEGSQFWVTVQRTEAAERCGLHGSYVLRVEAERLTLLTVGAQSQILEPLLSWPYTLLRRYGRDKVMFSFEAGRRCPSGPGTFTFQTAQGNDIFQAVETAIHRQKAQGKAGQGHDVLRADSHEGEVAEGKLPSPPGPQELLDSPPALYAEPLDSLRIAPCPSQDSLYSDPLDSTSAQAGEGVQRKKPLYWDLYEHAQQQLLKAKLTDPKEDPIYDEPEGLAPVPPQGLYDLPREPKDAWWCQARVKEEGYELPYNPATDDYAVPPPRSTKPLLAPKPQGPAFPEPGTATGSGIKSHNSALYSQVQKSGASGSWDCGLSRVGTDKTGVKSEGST
UniProt P23919: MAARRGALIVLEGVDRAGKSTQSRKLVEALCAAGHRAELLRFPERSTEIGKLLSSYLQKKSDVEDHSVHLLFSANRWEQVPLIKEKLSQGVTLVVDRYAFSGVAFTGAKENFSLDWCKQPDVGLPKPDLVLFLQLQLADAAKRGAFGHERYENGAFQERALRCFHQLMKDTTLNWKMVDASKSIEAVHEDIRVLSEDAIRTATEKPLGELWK
UniProt O60496: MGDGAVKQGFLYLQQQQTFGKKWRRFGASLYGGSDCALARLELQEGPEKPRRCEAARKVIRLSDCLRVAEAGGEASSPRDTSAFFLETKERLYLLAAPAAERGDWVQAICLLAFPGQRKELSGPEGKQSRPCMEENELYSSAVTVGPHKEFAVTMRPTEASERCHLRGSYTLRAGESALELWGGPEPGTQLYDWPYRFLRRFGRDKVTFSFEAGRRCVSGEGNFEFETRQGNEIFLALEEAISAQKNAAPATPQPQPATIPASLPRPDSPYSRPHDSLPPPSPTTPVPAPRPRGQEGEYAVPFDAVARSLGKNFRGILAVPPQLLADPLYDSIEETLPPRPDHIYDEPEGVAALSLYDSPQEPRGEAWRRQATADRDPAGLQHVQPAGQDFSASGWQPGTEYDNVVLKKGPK
UniProt Q9BVJ7: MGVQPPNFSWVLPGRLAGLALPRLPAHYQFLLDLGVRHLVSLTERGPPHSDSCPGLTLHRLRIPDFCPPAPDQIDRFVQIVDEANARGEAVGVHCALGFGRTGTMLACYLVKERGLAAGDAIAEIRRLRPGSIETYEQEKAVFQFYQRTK

Target | probe-labelled cysteine peptide fold change
DSTN_P60981_23_CSTPEEIK (UniProt P60981) | -0.0643
DNTTIP1_Q9H147_156_QAEEECAHR (UniProt Q9H147) | -0.097
DOK3_Q7L591_323_LPELTRPQPCPLPR (UniProt Q7L591) | 0.463
DYNC1H1_Q14204_867_SLETCMYDHK (UniProt Q14204) | 0.0773
DYNC1H1_Q14204_1999_TSAPITCELLNK (UniProt Q14204) | -0.0212
DOK1_Q99704_389_DAWWCQAR (UniProt Q99704) | -0.102
DOK3_Q7L591_144_LADCVSVLPADGESCPR (UniProt Q7L591) | 0.0534
DTYMK_P23919_31_LVEALCAAGHR (UniProt P23919) | 0.136
DOK2_O60496_36_FGASLYGGSDCALAR (UniProt O60496) | -0.0137
DPYSL2_Q16555_179_DRFQLTDCQIYEVLSVIR (UniProt Q16555) | 0.232
DUSP23_Q9BVJ7_95_GEAVGVHCALGFGR (UniProt Q9BVJ7) | -0.00709
DSTN_P60981_135_HECQANGPEDLNR (UniProt P60981) | -0.0264
DYNC1H1_Q14204_4570_LQGATCNNNK (UniProt Q14204) | -0.0319
EARS2_Q5JPH6_386_LQVLVEEAFGCQLQNR (UniProt Q5JPH6) | 0.127
DPH5_Q9H2P9_219_IRGEEPAVTEETLCVGLAR (UniProt Q9H2P9) | 0.00924
DSN1_Q9H410_191_CFEDSNGK (UniProt Q9H410) | 0.115
DNMT1_P26358_1339_ACQLSVVVDDKK (UniProt P26358) | -0.0891

Rewritten as labelled records: entries from further up
DOK3_Q7L591_323_LPELTRPQPCPLPR (UniProt Q7L591)
  probe-labelled cysteine peptide fold change: 0.463
DYNC1H1_Q14204_867_SLETCMYDHK (UniProt Q14204)
  probe-labelled cysteine peptide fold change: 0.0773

From the supplement of paper PMC12067093, “Discovery and optimisation of a covalent ligand for TRIM25 and its application to targeted protein ubiquitination” (Chemical Science, 2025)
